PubChem BioAssay AID504764 – Drosophila RNAi Screening Center – 2011
Test: 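Knock-downs that raise or lower a Notch target reporter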 (primary screen). System: Drosophila Kc167 cells. Reagents: long dsRNA against Drosophila genes. Duration: about 5 days (4 days dsRNA, then 24 h after transfection). Challenge: transfection of constitutively active membrane-tethered Notch lacking the extracellular domain, read 24 h later. Measurement: 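Light from a Notch-responsive E(spl)m3 luciferase reporter under active Notch, with control-promoter and no-Notch reporter wells to normalise; raw counts from paired wells a and b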. Reading the numbers: induced reporter light, run 1, well a and induced reporter light, run 1, well b: higher = more light from the Notch target reporter with active Notch; control promoter light, run 1, well a and control promoter light, run 1, well b: higher = more light from the viral control promoter (cell number, transfection, viability); uninduced reporter light, run 1, well a: higher = more light from the Notch target reporter without active Notch. Active means: 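Wells with low control signal or poorly matching duplicates excluded; duplicates averaged; per source plate, z beyond ±2 for induced/control log2 ratio or beyond ±1.8 for induced/uninduced marks a hit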. Meaning of the calls: active = modifier hit (raised or lowered Notch signal); inactive = not a hit.
In all, the deposit lists about 22,000 reagents; shown is a random part of those that have a named target and a result. Over the whole deposit, 403 (1.9%) are marked active. 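Unnormalised raw counts per well; ratio z-scores behind the hit calls and whether each hit raises or lowers signal are not deposited.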 The numbers tell different reagents against one gene apart. A plus sign joins genes that one reagent is predicted to hit. No sequences are given here. The record does not give: the amount of reagent.

| target | dsRNA no. | induced reporter light, run 1, well a | induced reporter light, run 1, well b | control promoter light, run 1, well a | control promoter light, run 1, well b | uninduced reporter light, run 1, well a | activity call |
| --- | --- | --- | --- | --- | --- | --- | --- |
| CG30486 | 1 | 84775 | 95285 | 1.22e5 | 1.14e5 | 8465 | inactive |
| nito (spenito) | 1 | 1.60e5 | 1.98e5 | 1.19e5 | 1.09e5 | 17910 | active |
| Idgf5 (Imaginal disc growth factor 5) | 1 | 96000 | 1.14e5 | 2.01e5 | 1.93e5 | 9015 | inactive |
| Gem4b + Gem4c | 1 | 62195 | 75345 | 66850 | 70935 | 5570 | inactive |
| CG1998 | 1 | 1.33e5 | 1.48e5 | 2.55e5 | 2.62e5 | 9980 | inactive |
| Cul5 (Cullin 5) | 1 | 1.48e5 | 1.48e5 | 2.02e5 | 2.02e5 | 10855 | inactive |
| CG31639 | 1 | 1.21e5 | 1.25e5 | 1.58e5 | 1.42e5 | 7790 | inactive |
| CG32457 | 1 | 2.35e5 | 2.23e5 | 2.09e5 | 2.90e5 | 14240 | inactive |

2 successive entries already listed, for reference:
| target | dsRNA no. | induced reporter light, run 1, well a | induced reporter light, run 1, well b | control promoter light, run 1, well a | control promoter light, run 1, well b | uninduced reporter light, run 1, well a | activity call |
| --- | --- | --- | --- | --- | --- | --- | --- |
| Idgf5 (Imaginal disc growth factor 5) | 1 | 96000 | 1.14e5 | 2.01e5 | 1.93e5 | 9015 | inactive |
| Gem4b + Gem4c | 1 | 62195 | 75345 | 66850 | 70935 | 5570 | inactive |

Next entries:
| target | dsRNA no. | induced reporter light, run 1, well a | induced reporter light, run 1, well b | control promoter light, run 1, well a | control promoter light, run 1, well b | uninduced reporter light, run 1, well a | activity call |
| --- | --- | --- | --- | --- | --- | --- | --- |
| Ptr (Patched-related) | 1 | 1.88e5 | 1.91e5 | 2.18e5 | 1.86e5 | 14500 | inactive |
| AP-1-2beta (Adaptor Protein complex 1/2, beta subunit) | 1 | 48930 | 61575 | 71525 | 86810 | 5192 | inactive |
| Prosalpha6 (Proteasome alpha6 subunit) | 1 | 11345 | 11505 | 8130 | 8790 | 1540 | inactive |
| CG32986 | 1 | 1.07e5 | 1.30e5 | 93125 | 95545 | 19030 | inactive |
| Pvf1 (PDGF- and VEGF-related factor 1) | 1 | 1.16e5 | 1.19e5 | 1.02e5 | 54145 | 7920 | inactive |
| CG13643 | 1 | 1.63e5 | 1.52e5 | 1.58e5 | 1.46e5 | 10920 | inactive |
| CG13643 | 2 | 2.34e5 | 2.27e5 | 2.54e5 | 1.86e5 | 14480 | inactive |
| Pc (Polycomb) | 1 | 88985 | 68815 | 91810 | 83665 | 4450 | inactive |
| CG7420 | 1 | 2.25e5 | 2.10e5 | 2.45e5 | 2.55e5 | 20265 | inactive |
| CG15435 | 1 | 1.26e5 | 88735 | 1.10e5 | 1.05e5 | 8645 | inactive |
| CG5003 | 1 | 2.10e5 | 2.07e5 | 2.35e5 | 2.95e5 | 13975 | inactive |
| CG15461 | 1 | 1.14e5 | 1.06e5 | 1.22e5 | 1.22e5 | 11885 | inactive |
